The values below come from PubChem BioAssay AID2685 (National Center for Advancing Translational Sciences (NCATS), 2010).

“And” between values parts separate entries of the source, which are not always exact repeats. Identical values can stand only once. Some of the results follow. Shown are side measurements of this screen, not its main read-out; they come without a call. Compounds called inactive in the main read-out are mostly missing here. The note in brackets gives the kind of curve behind each potency; many fits are weak.

The AC50 is the midpoint of the concentration-response curve, whichever way the signal moves.

A short description of this assay: qHTS Assay for Lipid Storage Modulators in Drosophila S3 Cells.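 On cell number change: cells counted by Cell Tracker Red CMTPX staining in the red channel.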 The note with it: BODIPY lipid droplet fluorescence, 18-24 h; for cell number change: measured here: cell count max response, cells fed with added oleic acid. The method in brief:
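Laser-scanning cytometry quantifies lipid droplet accumulation (500–530 nm total intensity; droplet/cell object ratio) in oleic acid-fed (400 uM added) Drosophila S3 cells treated with a concentration series. 20 uM Triacsin C defined 100% inhibition.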
For orientation: qHTS replaces the single test concentration by a dilution series.

The mark [1] stands for this setting: measured here: cell number channel AC50, cells fed with added oleic acid.
Setting [2] is: measured here: lipid fluorescence (Fed channel) AC50, cells fed with added oleic acid.

As to `O=[N+]([O-])c1ccc(Sc2cccc3cccnc23)c([N+](=O)[O-])c1`, the cell number change is -52.8%. Under setting [1], the AC50 is 29.1 µM [falling, single point]. For the same compound, the AC50 under setting [2] is 3.66 µM [rising, single point].

On to `COCCNc1nc2nonc2nc1N(C)Cc1cccc2cnccc12`, for which the cell number change is 15.9%. For the same compound, the AC50 under setting [2] was 0.00461 µM [rising, full curve, poor fit].

Consider `COc1cccc(-n2cc(CNCc3c(C(=O)N(C)C)nc4ccc(Cl)cn34)cn2)c1`, for which the cell number change is -43.2%. Moreover, the AC50 under setting [1] is 8.2 µM [falling, partial curve]. Besides, the AC50 under setting [2] was 16.4 µM [falling, partial curve].

For the compound `O=C(Cc1ccc([N+](=O)[O-])cc1)Nc1ccc(Cl)cc1`, the AC50 under setting [1] was 6.51 µM [falling, single point].

On to `COc1ccc(N(C(=O)c2ccc3c(c2)OCO3)C2C=CS(=O)(=O)C2)c(OC)c1` (stereo not drawn), for which the cell number change is -20.9%. Moreover, the AC50 under setting [1] was 7.31 µM [falling, partial curve, poor fit]. Further, the AC50 under setting [2] was 4.11 µM [rising, full curve].

`CCOCCCn1c(=S)[nH]c2ncccc2c1=O`: the cell number change is -2.09%. Moreover, the AC50 under setting [1] was 0.00461 µM [falling, full curve, poor fit]. Moreover, the AC50 under setting [2] was 0.82 µM [falling, full curve, poor fit].

As to `CC1CCCCN1S(=O)(=O)c1ccc(C(=O)Nc2nnc(-c3ccco3)o2)cc1` (stereo not drawn), the cell number change is -5.82%.

`O=C(Nc1ccc(N2CCCCC2)c(Cl)c1)c1ccc(N2CCOCC2)c([N+](=O)[O-])c1`: the cell number change was -36.2%. For the same compound, the AC50 under setting [1] was 20.6 µM [falling, single point]. Under setting [2], the AC50 is 23.1 µM [falling, single point].

As for `COc1ccc(-c2nc(NC(=O)c3nc4nccc(C)n4n3)sc2C)cc1`, the AC50 is, setting by setting: under setting [1], 0.116 µM [rising, full curve, poor fit]; under setting [2], 5.8 µM [rising, single point].

In the case of `CCc1ccc(Nc2n[n+](-c3ccccc3)c(/C=C/c3ccccc3)s2)cc1`, the cell number change is -4.21%. Also, the AC50 under setting [2] was 29.1 µM [falling, single point].

On to `CN1C(=O)C(CC(=O)NC2CCCCC2)SC1=Nc1ccccc1` (stereo not drawn), for which the cell number change worked out at 11.2%. Further, under setting [2], the AC50 is 1.64 µM [falling, partial curve, poor fit].

On to `Cn1c(=O)c2c(nc(SCC(=O)NCC3CCCO3)n2C)n(C)c1=O` (stereo not drawn), for which the cell number change is 2.65%. Moreover, the AC50 under setting [2] was 6.51 µM [rising, single point].

As for `Cc1ccc(N2CCCCn3c2nc2c3c(=O)[nH]c(=O)n2C)cc1`, the cell number change amounted to 0.25%.

For the compound `Cc1cc(C)cc(OCC(=O)N2CCc3ccccc3C2)c1`, the cell number change was determined as 6.3%. For the same compound, the AC50 under setting [2] was 16.4 µM [rising, partial curve].

Take `CCOC(=O)c1c(C)nc2c(c1-c1ccc(OC)c(OC)c1)C(=O)c1ccccc1-2`: the cell number change came out at 2.43%. Moreover, the AC50 under setting [2] was 3.26 µM [rising, full curve].

With `COc1cc(C2=NOC(C(=O)Nc3ccc(C(C)=O)cc3)C2)cc(OC)c1OC` (stereo not drawn), the cell number change worked out at 33.3%.

As for `O=C1Nc2ccccc2C1C(C[N+](=O)[O-])c1ccccc1` (stereo not drawn), the cell number change turned out to be 0.709%. Further, the AC50 under setting [2] is 6.51 µM [rising, partial curve, poor fit].

As to `COc1ccc(C(=O)N2CCc3cc(OC)c(OC)cc3C2c2ccc(OC)c(OC)c2)cc1` (stereo not drawn), the cell number change was determined as 13.9%. Also, the AC50 under setting [2] was 29.1 µM [rising, single point].

On to `CC(=O)c1sc2nc(CSc3nncn3C)[nH]c(=O)c2c1C`, for which the cell number change turned out to be 36.2%. Further, the AC50 under setting [2] was 29.1 µM [rising, single point].

Consider `COc1ccc(-n2c(CCc3ccccc3)n[nH]c2=S)cc1`, for which the cell number change was -42.1%.

As for `CCOC(=O)C1CCCN(C(=O)c2ccc3[nH]c4c(c3c2)CC(C)CC4)C1` (stereo not drawn), the cell number change was -18.2%. For the same compound, the AC50 under setting [2] was 20.6 µM [falling, single point].

Regarding `CC(C)(C)c1ccc(C(=O)NCC(=O)OCC(=O)NC(=O)NC2CCCC2)cc1`, the cell number change came out at 4.31%. The AC50 under setting [1] was 7.31 µM [falling, single point]. In addition, under setting [2], the AC50 is 0.0231 µM [falling, full curve, poor fit].

In the case of `O=C(CSc1cc(Cl)ccc1Cl)NC1CCCc2ccccc21` (stereo not drawn), the AC50 under setting [2] is 2.91 µM [rising, partial curve, poor fit].

On to `COc1ccc(/C=N/Nc2nc(N3CCCC3)nc(N3CCCC3)n2)c(OC)c1OC`, for which the cell number change was -8.89%. The AC50 under setting [1] was 6.51 µM [rising, partial curve, poor fit]. Moreover, the AC50 under setting [2] was 6.51 µM [rising, partial curve].

Turning to `Cc1onc(-c2c(Cl)cccc2Cl)c1C(=O)N1CCCc2ccccc21`, the cell number change worked out at 66.4%. Further, the AC50 under setting [1] was 29.1 µM [rising, single point]. Moreover, the AC50 under setting [2] is 29.1 µM [rising, single point].

Regarding `CCOc1c(Br)cc(Br)cc1/C=C1\SC(N)=NC1=O`, the cell number change was -9.52%.

Turning to `COc1ccccc1/C=C1\SC(=S)N(CCC(=O)NNC(=O)c2ccccc2O)C1=O`, the cell number change is 14.7%. Further, under setting [1], the AC50 is 2.31 µM [rising, single point]. Besides, under setting [2], the AC50 is 20.6 µM [rising, single point].

`Cc1cccc(CNc2ncnc3ccc(-c4ccc5c(c4)OCCO5)cc23)c1`: the cell number change was -31.4% and -12.2%. Besides, under setting [1], the AC50 was 16.4 µM [falling, single point]. Further, under setting [2], the AC50 is 18.4 µM [falling, partial curve].

Take `O=C(Nc1cccnc1)c1cccc(S(=O)(=O)N2CCc3ccccc32)c1`: the cell number change is -30.1%. Moreover, under setting [1], the AC50 was 0.82 µM [falling, full curve, poor fit]. Besides, the AC50 under setting [2] was 0.326 µM [falling, full curve, poor fit].

For the compound `N#Cc1c(NC(=O)CN2CCOCC2)oc(-c2ccccc2)c1-c1ccccc1`, the cell number change is -14.3%. Besides, the AC50 under setting [2] was 5.17 µM [rising, partial curve, poor fit].

As for `Cc1csc(NC(=O)CSc2nnc(-c3ccoc3C)n2CCc2ccccc2)n1`, the cell number change is -23.5%.

For `COc1ccc(N2CCN(C(=S)Nc3cccc(C)c3C)CC2)cc1`, the cell number change came out at 4.31%. Under setting [2], the AC50 is 7.31 µM [rising, partial curve].

With `COc1ccc(S(=O)(=O)N2CCCC(C(=O)N3CCN(C)CC3)C2)cc1Cl` (stereo not drawn), the cell number change worked out at 3.17%. For the same compound, the AC50 under setting [2] was 32.6 µM [rising, single point].

For the compound `O=C(COc1ccc(Cl)cc1)Nc1nc(-c2ccc(S(=O)(=O)N3CCOCC3)cc2)cs1`, the cell number change amounted to 12.8%.

As for `CCOC(=O)N1CCC(NC(=O)c2ccc(CS(=O)c3ccc(Cl)cc3)o2)CC1` (stereo not drawn), the cell number change is -1.21%.

For the compound `O=C(CN1CCc2ccccc2C1)Nc1ccccc1C(F)(F)F`, the cell number change turned out to be 5.83%. Besides, the AC50 under setting [2] was 29.1 µM [rising, single point].

`Cc1ccc(N2CC(C(=O)NCc3cccs3)CC2=O)cc1` (stereo not drawn): the cell number change stood at 7.29%. In addition, under setting [2], the AC50 is 3.26 µM [falling, partial curve].

For the compound `CCC1CCc2sc(C(=O)NCc3ccccn3)cc2C1` (stereo not drawn), the cell number change worked out at 24.1%. The half-maximal activity concentration (AC50) under setting [2] is 29.1 µM [rising, single point].

`O=C(c1cccs1)N1CCN(Cc2ccccc2[N+](=O)[O-])CC1`: the cell number change is -0.0784%. In addition, the AC50 under setting [2] is 9.2 µM [rising, partial curve].

`CC(=O)c1cccc(CN2CCC(CO)(CCOc3ccccc3)CC2)c1`: the cell number change is 21%.

On to `COc1ccc(OC)c(S(=O)(=O)Nc2ccc3[nH]c(=O)[nH]c3c2)c1`, for which the cell number change was found to be 28.2%. For the same compound, the AC50 under setting [2] was 6.51 µM [rising, single point].

As to `COc1ccc(CN2CN=C(Nc3nc4ccccc4s3)NC2)cc1`, the cell number change is -4.52%. Under setting [2], the AC50 was 6.51 µM [rising, full curve, poor fit].

In the case of `Cc1cccc(-c2ccc3ncnc(NCc4cccc(F)c4)c3c2)c1`, the cell number change was -41.2%. In addition, the AC50 under setting [1] is 6.51 µM [falling, full curve].

On to `CCCc1nnc(NC(=O)CN2CCN(C)CC2)s1`, for which the cell number change amounted to 20.7%. In addition, under setting [1], the AC50 was 0.231 µM [falling, full curve, poor fit]. The AC50 under setting [2] was 0.92 µM [falling, full curve].

In the case of `Cc1ccc(S(=O)(=O)N2CCN(C(=O)CSc3ncn[nH]3)CC2)cc1`, the AC50 under setting [2] is 14.6 µM [falling, partial curve].

With `COC(=O)c1cc(O)cc(OC)c1Oc1cc(C)cc(O)c1C(=O)O`, the cell number change is -46.7%. Besides, the AC50 under setting [1] is 11.6 µM [falling, partial curve]. Further, the AC50 under setting [2] was 10.3 µM [falling, partial curve].

With `COc1ccccc1N1CCN(Cc2cc(OC)c3c(c2)OCO3)CC1`, the cell number change is -11.8%. The AC50 under setting [2] is 0.103 µM [falling, full curve, poor fit].

With `CC(C)NC(=S)N/N=C/c1cc(Br)ccc1O`, the cell number change is -33.9%. Under setting [1], the AC50 was 18.4 µM [falling, partial curve, poor fit]. Also, the AC50 under setting [2] is 8.2 µM [falling, partial curve, poor fit].

In the case of `CN(C)S(=O)(=O)c1cc(NC(=O)Cn2ccsc2=N)ccc1Cl`, the cell number change is 2.96%. Moreover, the AC50 under setting [2] is 0.116 µM [falling, full curve, poor fit].

As for `CN(C)CC(C)(C)CNC(C(=O)Nc1ccc(Cl)cc1C(F)(F)F)c1ccccc1` (stereo not drawn), the AC50 under setting [2] was 2.06 µM [falling, partial curve].

As to `CCOC(=O)C1CCCN(C(=O)CN2C(=O)/C(=C/c3ccc(OC)cc3)Oc3ccccc32)C1` (stereo not drawn), the cell number change was 22.5%. Under setting [2], the AC50 is 1.03 µM [falling, single point].

For `CN(CCOc1ccccc1)CC(=O)Nc1cccc(C#N)c1`, the cell number change was found to be 23.9%. The AC50 under setting [2] was 0.58 µM [rising, single point].

On to `CC12CCC(=O)C=C1CCC1C2C(=O)CC2(C)C1CC[C@]2(O)C(=O)CO` (stereo partly drawn), for which the AC50 under setting [1] was 0.58 µM [rising, single point].

Take `CC(=O)C1=C(O)C(=O)N(C)C1c1ccccc1[N+](=O)[O-]` (stereo not drawn): the cell number change is -4.44%. Moreover, the AC50 under setting [2] is 7.31 µM [falling, full curve, poor fit].

`O=C(COC(=O)c1cc(-c2ccncc2)nc2ccccc12)Nc1ccc2c(c1)OCO2`: the cell number change is 14.6%. Besides, under setting [1], the AC50 was 0.146 µM [falling, full curve, poor fit]. The AC50 under setting [2] was 20.6 µM [rising, single point].

In the case of `COc1ccc(CCNC(=O)C/C(C)=N/NC(=O)COc2ccc(C)cc2Br)cc1OC`, the cell number change turned out to be 21.8%. In addition, the AC50 under setting [2] is 6.51 µM [falling, partial curve, poor fit].
